Data on one molecule can be found in PMC4571087.

The chains behind the UniProt entries cited, without tags or fusion partners.
UniProt P38682: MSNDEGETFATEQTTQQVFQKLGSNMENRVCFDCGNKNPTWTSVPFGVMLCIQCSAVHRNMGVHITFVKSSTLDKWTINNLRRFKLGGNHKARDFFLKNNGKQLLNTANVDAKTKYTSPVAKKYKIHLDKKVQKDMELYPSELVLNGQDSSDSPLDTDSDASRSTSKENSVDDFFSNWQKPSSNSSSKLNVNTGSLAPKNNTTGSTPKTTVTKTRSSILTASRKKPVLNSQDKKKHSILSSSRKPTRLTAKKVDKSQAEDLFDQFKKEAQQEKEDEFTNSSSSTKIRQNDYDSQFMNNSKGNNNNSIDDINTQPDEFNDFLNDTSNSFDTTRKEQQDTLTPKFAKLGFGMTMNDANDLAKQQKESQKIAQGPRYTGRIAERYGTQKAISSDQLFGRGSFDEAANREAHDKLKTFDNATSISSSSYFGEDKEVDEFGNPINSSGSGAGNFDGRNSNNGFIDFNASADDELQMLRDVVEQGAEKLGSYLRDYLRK

In the assay the target is Glo3-HBH (S. cerevisiae) (UniProt P38682). Put plainly: affinity purification with mass spectrometry; cells expressing Glo3-HBH fixed with 1% formaldehyde for 2 min at RT, quenched with glycine; tandem affinity purification by the HBH tag; eluted proteins digested (LysC, trypsin) and analysed by LC-MS/MS.

These are yes or no findings as the source states them, for the method shown. In cells and extracts the contact can be indirect. These calls come from enrichment with a bait or labelling near it, and not all partners need be listed.

B1: C-5 sterol desaturase Erg3 (protein, UniProt P32353 1-365)
chain: MDLVLEVADHYVLDDLYAKVLPASLAANIPVKWQKLLGLNSGFSNSTILQETLNSKNAVKECRRFYGQVPFLFDMSTTSFASLLPRSSILREFLSLWVIVTIFGLLLYLFTASLSYVFVFDKSIFNHPRYLKNQMAMEIKLAVSAIPWMSMLTVPWFVMELNGHSKLYMKIDYENHGVRKLIIEYFTFIFFTDCGVYLAHRWLHWPRVYRALHKPHHKWLVCTPFASHSFHPVDGFLQSISYHIYPLILPLHKVSYLILFTFVNFWTVMIHDGQYLSNNPAVNGTACHTVHHLYFNYNYGQFTTLWDRLGGSYRRPDDSLFDPKLRDAKETWDAQVKEVEHFIKEVEGDDNDRIYENDPNTKKNN
With B1, the binding entry is “binds”.
